System: C2C12 myoblasts
Test: High-throughput screen for myogenesis inhibitors with E26 staining
Format: cell-based, murine
Conditions: 48 h with compound, 1 μM E26 staining after five days, p<0.05

CN[C@@H]1C[C@H]2O[C@@](C)([C@@H]1OC)n1c3ccccc3c3c4c(c5c6ccccc6n2c5c31)C(=O)NC4 [staurosporine]
inhibition of differentiation (decrease of E26 fluorescent signal): reduced the fluorescent signal to a significant extent

Source: US8951938B2, “Combinatorial rosamine library to detect cell-state switching” (New York University, priority 2007, dated 2015)
